According to patent publication US11753445B2, “Therapeutic peptides” (COHBAR, INC., priority 2016, dated 2023):
At least one compound was matched to its structure with a doubt left.

Tests used:
Assay type in all cases: in vivo, Male C57BL/6 mice
[1] = test system: Diet Induced Obese (DIO) mice; test: Serum triglycerides and enzyme markers of liver damage in DIO mice, 21 days (Example 9); conditions: male DIO mice; 21 days once daily IP 10 nmol/kg
Description: Male C57BL/6 mice were maintained on a high fat diet for 12 to 22 weeks to develop diet induced obesity. Animals were randomized to treatment groups based on blood glucose levels and body weight. The peptides (SEQ ID No: 208, and SEQ ID NO: 210) were each administered to a group of male DIG mice twice daily by appropriate routes at a dose of 15 mg/kg/dose for 21 days (N=8 to 12 animals per treatment group). […] Serum samples were obtained at termination 2 hours after the first dose on Day 21. Samples were analyzed for standard clinical chemistry parameters by methods well known in the art.

[2] = test system: Diet Induced Obese (DIO) mice; test: Combination therapy with liraglutide in Diet Induced Obese mice, 21-day study (Example 8); conditions: male DIO mice; 21 days liraglutide alone IP 10 nmol/kg; N = 8
[3] = test system: Diet Induced Obese (DIO) mice; test: Body weight and fat mass in Diet Induced Obese mice, 21-day study (Example 7); conditions: male DIO mice; 21 days once daily IP 10 nmol/kg; Mean (SD)
Description: Male C57BL/6 mice were maintained on a high fat diet for 12 to 22 weeks to develop diet induced obesity. Animals were randomized to treatment groups based on blood glucose levels and body weight. The peptides (SEQ ID No: 208 and SEQ ID NO: 210) were each administered to a group of male DIO mice twice daily by appropriate routes at a dose of 15 mg/kg/dose for 21 days (N=8 to 12 animals per treatment group). […] Metabolic parameters including body weight, blood glucose levels and food intake were monitored. Body mass distribution (fat vs lean) was determined where appropriate by quantitative whole body NMR prior to dosing and at the end of dosing.

SMILES: CCCCCCCCCCCCCCCC(=O)N[C@@H](CCC(=O)NCCCC[C@H](NC(=O)[C@H](C)NC(=O)[C@H](C)NC(=O)[C@H](CCC(N)=O)NC(=O)CNC(=O)[C@H](CCC(=O)O)NC(=O)[C@H](CC(C)C)NC(=O)[C@H](Cc1ccc(O)cc1)NC(=O)[C@H](CO)NC(=O)[C@H](CO)NC(=O)[C@@H](NC(=O)[C@H](CC(=O)O)NC(=O)[C@H](CO)NC(=O)[C@@H](NC(=O)[C@H](Cc1ccccc1)NC(=O)[C@@H](NC(=O)CNC(=O)[C@H](CCC(=O)O)NC(=O)[C@H](C)NC(=O)[C@@H](N)Cc1cnc[nH]1)[C@@H](C)O)[C@@H](C)O)C(C)C)C(=O)N[C@@H](CCC(=O)O)C(=O)N[C@@H](Cc1ccccc1)C(=O)N[C@H](C(=O)N[C@@H](C)C(=O)N[C@@H](Cc1c[nH]c2ccccc12)C(=O)N[C@@H](CC(C)C)C(=O)N[C@H](C(=O)N[C@@H](CCCNC(=N)N)C(=O)NCC(=O)N[C@@H](CCCNC(=N)N)C(=O)NCC(=O)O)C(C)C)[C@@H](C)CC)C(=O)O [Liraglutide, liraglutide]
- ALT (U/L), mean concentration in serum [1]: 70.8 U/L
- Triglycerides (mg/dL), mean concentration in serum [1]: 109 mg/dL
- Decrease from Baseline in Body Weight (%) [2]: −9.3%
- Decrease from Baseline in Fat Mass [2]: -2.1 g
- Decrease from Baseline in Body Weight (%) [3]: −9.3 (2.9) %
- Decrease from Baseline in Fat Mass (g) [3]: −2.1 (1.5) g
